PubChem BioAssay AID1259265 | Sanger Institute | 2017
Assay: 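Retest single siRNAs, four per gene, for boosting anchor drug effects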 (follow-up of hits). Cell system: SW620 human colorectal cancer cells. Reagent: single siRNA against human genes. Challenge: anchor drug given a day after transfection: BYL719 at 1 µM, cetuximab at 5 µg/ml, trametinib at 10 nM; DMSO alone as the comparison arm. Read-out: 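Viability normalised to control pool 2 (non-targeting) and averaged over replicates; synergy score compares combined siRNA and drug effect against each effect alone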. Reading the numbers: synergy score with trametinib: higher = stronger synergy (synthetic lethal) with trametinib; synergy score with BYL719: higher = stronger synergy (synthetic lethal) with BYL719; synergy score with cetuximab: higher = stronger synergy (synthetic lethal) with cetuximab. Call rule: 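Synergistic (synthetic lethal) when the synergy score tops 0.10 with trametinib, BYL719 or cetuximab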.
The deposit covers 160 reagents; below is an unselected part. Over the whole deposit, 31 (19%) are marked active. 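Calls refer to single siRNAs; agreement across several siRNAs per gene and other cell lines is not shown.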 The numbers tell different reagents against one gene apart. Further read-outs or replicates are left out here. Not given: the amount of reagent, the time to read-out.

no.	gene	reagent no.	synergy score with trametinib	synergy score with BYL719	synergy score with cetuximab	Call
1	CDKN2D (cyclin dependent kinase inhibitor 2D)	1	0.189	-0.106	-0.0333	active
2	CDKN2D (cyclin dependent kinase inhibitor 2D)	2	0.212	0.11	0.0887	active
3	CDKN2D (cyclin dependent kinase inhibitor 2D)	3	-0.146	-0.306	-0.122	inactive
4	CDKN2D (cyclin dependent kinase inhibitor 2D)	4	-0.0334	0.0156	-0.00771	inactive
5	AK2 (adenylate kinase 2)	1	-0.0198	-0.152	0.0318	inactive
6	AK2 (adenylate kinase 2)	2	0.0367	-0.123	-0.117	inactive
7	AK2 (adenylate kinase 2)	3	-0.123	-0.306	-0.122	inactive
8	AK2 (adenylate kinase 2)	4	0.147	-0.0149	0.027	active
9	CRIM1 (cysteine rich transmembrane BMP regulator 1)	1	-0.0995	0.00501	-0.178	inactive
10	CRIM1 (cysteine rich transmembrane BMP regulator 1)	2	0.0215	-0.138	-0.0169	inactive
11	CRIM1 (cysteine rich transmembrane BMP regulator 1)	3	0.0208	0.088	-0.142	inactive
12	CRIM1 (cysteine rich transmembrane BMP regulator 1)	4	0.0711	-0.129	-0.0484	inactive
13	BMPR2 (bone morphogenetic protein receptor type 2)	1	-0.114	-0.116	-0.122	inactive
14	BMPR2 (bone morphogenetic protein receptor type 2)	2	0.0319	-0.147	0.000886	inactive
15	BMPR2 (bone morphogenetic protein receptor type 2)	3	-0.0505	-0.257	-0.122	inactive
16	BMPR2 (bone morphogenetic protein receptor type 2)	4	-0.242	-0.301	-0.122	inactive
17	CHD4 (chromodomain helicase DNA binding protein 4)	1	-0.0213	-0.121	-0.0389	inactive
18	CHD4 (chromodomain helicase DNA binding protein 4)	2	0.056	-0.206	0.12	
19	CHD4 (chromodomain helicase DNA binding protein 4)	3	-0.0262	-0.0308	0.118	
20	CHD4 (chromodomain helicase DNA binding protein 4)	4	-0.0995	-0.165	-0.051	inactive
21	SYNCRIP (synaptotagmin binding cytoplasmic RNA interacting protein)	1	0.132	-0.0694	0.0033	active
22	SYNCRIP (synaptotagmin binding cytoplasmic RNA interacting protein)	2	-0.0316	-0.201	-0.2	inactive
23	SYNCRIP (synaptotagmin binding cytoplasmic RNA interacting protein)	3	0.0273	-0.161	-0.086	inactive
24	SYNCRIP (synaptotagmin binding cytoplasmic RNA interacting protein)	4	-0.0572	-0.185	-0.0929	inactive
25	PRAG1 (PEAK1 related, kinase-activating pseudokinase 1)	1	-0.0356	-0.0847	-0.0258	inactive
26	PRAG1 (PEAK1 related, kinase-activating pseudokinase 1)	2	-0.0807	0.402	-0.122	
27	PRAG1 (PEAK1 related, kinase-activating pseudokinase 1)	3	-0.202	-0.127	-0.0812	inactive
28	PRAG1 (PEAK1 related, kinase-activating pseudokinase 1)	4	-0.0603	0.0259	-0.112	inactive
29	HSPB8 (heat shock protein family B (small) member 8)	1	0.025	-0.2	-0.0493	inactive
30	HSPB8 (heat shock protein family B (small) member 8)	2	-0.0641	-0.305	-0.0424	inactive
31	HSPB8 (heat shock protein family B (small) member 8)	3	-0.0224	-0.346	0.00546	inactive
32	HSPB8 (heat shock protein family B (small) member 8)	4	0.0589	-0.0113	0.184	
33	RPS6KA4 (ribosomal protein S6 kinase A4)	1	0.0273	-0.143	-0.0182	inactive
34	RPS6KA4 (ribosomal protein S6 kinase A4)	2	0.0473	-0.0498	-0.0139	inactive
35	RPS6KA4 (ribosomal protein S6 kinase A4)	3	-0.0172	-0.174	-0.0166	inactive
36	RPS6KA4 (ribosomal protein S6 kinase A4)	4	0.0929	0.0659	0.0306	inactive
37	STK36 (serine/threonine kinase 36)	1	-0.04	-0.349	-0.177	inactive
38	STK36 (serine/threonine kinase 36)	2	0.0152	-0.0993	-0.0826	inactive
39	STK36 (serine/threonine kinase 36)	3	-0.0273	-0.281	-0.0621	inactive
40	STK36 (serine/threonine kinase 36)	4	-0.0107	-0.132	-0.118	inactive
41	MAP3K8 (mitogen-activated protein kinase kinase kinase 8)	1	-0.0745	-0.182	-0.122	inactive
42	MAP3K8 (mitogen-activated protein kinase kinase kinase 8)	2	-0.163	-0.117	-0.144	inactive
43	MAP3K8 (mitogen-activated protein kinase kinase kinase 8)	3	-0.147	-0.0869	-0.0655	inactive
44	MAP3K8 (mitogen-activated protein kinase kinase kinase 8)	4	0.139	-0.0092	0.0908	active
45	BRAF (B-Raf proto-oncogene, serine/threonine kinase)	1	-0.00755	-0.114	-0.0464	inactive
46	BRAF (B-Raf proto-oncogene, serine/threonine kinase)	2	-0.0884	0.0462	-0.0615	inactive
47	BRAF (B-Raf proto-oncogene, serine/threonine kinase)	3	-0.0121	-0.0692	-0.0669	inactive
48	BRAF (B-Raf proto-oncogene, serine/threonine kinase)	4	0.0699	-0.0344	-0.107	inactive
49	SF3B1 (splicing factor 3b subunit 1)	1	-0.0951	-0.0556	-0.05	inactive
50	SF3B1 (splicing factor 3b subunit 1)	2	-0.0829	-0.0334	-0.0178	inactive
51	SF3B1 (splicing factor 3b subunit 1)	3	-0.0282	0.0929	-0.0381	inactive
52	SF3B1 (splicing factor 3b subunit 1)	4	-0.0867	-0.0034	0.000897	inactive
